Data published in patent US20030065020A1, “Treatment of macular degeneration” (priority 2001, published 2003).
At least one structure is not confirmed: it was looked up by name or label, or the drawing left a doubt.

Test system: early age-related macular degeneration
Test: Randomised, double-masked, placebo-controlled trial of statins in prevention of progression of early age-related macular degeneration
Type: in vivo, patients
Details: 10 mg each night versus placebo; measured at 3, 6 and 12 months; statistically significant

Structure (SMILES): CCC(C)(C)C(=O)O[C@H]1C[C@@H](C)C=C2C=C[C@H](C)[C@H](CC[C@@H]3C[C@@H](O)CC(=O)O3)[C@H]21 [simvastatin]
- Visual acuity: improvement in visual acuity
- Wisconsin Age-Related Macular Degeneration Score: improved Macular Degeneration Score
